According to PMC11005723, “Development of Complementary Photo‐arginine/lysine to Promote Discovery of Arg/Lys hPTMs Interactomes” (Advanced Science, 2024):
The source gives many values for each of these; only a part stands here.

Test system: HEK293T nuclear lysates
Test: SILAC‐based pull‐down proteomics H4K5acK8ac/H4K5 (probes 8/5)
Assay type: binding, human
Details: for A6 log2 (H4K5ac8ac/H4K5): replicate A6; for B6 log2 (H4K5ac8ac/H4K5): replicate B6

probe 8: H4K5acK8ac peptide probe with photo‐arginine R(dz) and K(biotin) (SGRGKGGKGLGKGGK; photo-arginine R(dz) at 3; acetyl-lysine at 5; acetyl-lysine at 8; K(biotin) at 15)
A6 log2 (H4K5ac8ac/H4K5) (protein LUC7L3 (O95232)): -0.02795
B6 log2 (H4K5ac8ac/H4K5) (protein LUC7L3 (O95232)): 0.1202
A6 log2 (H4K5ac8ac/H4K5) (protein LYAR (Q9NX58)): -0.05071
B6 log2 (H4K5ac8ac/H4K5) (protein LYAR (Q9NX58)): 0.08497
A6 log2 (H4K5ac8ac/H4K5) (protein MAP4 (P27816)): 0.3233
B6 log2 (H4K5ac8ac/H4K5) (protein MAP4 (P27816)): 0.1715
A6 log2 (H4K5ac8ac/H4K5) (protein MARCKS (P29966)): -0.2392
B6 log2 (H4K5ac8ac/H4K5) (protein MARCKS (P29966)): 0.09304
A6 log2 (H4K5ac8ac/H4K5) (protein MCM3 (P25205)): 0.1308
B6 log2 (H4K5ac8ac/H4K5) (protein MCM3 (P25205)): 0.08696
A6 log2 (H4K5ac8ac/H4K5) (protein MDH2 (P40926)): 0.09494
B6 log2 (H4K5ac8ac/H4K5) (protein MDH2 (P40926)): 0.1714
A6 log2 (H4K5ac8ac/H4K5) (protein METAP2 (G3V1U3)): 0.04926
B6 log2 (H4K5ac8ac/H4K5) (protein METAP2 (G3V1U3)): 0.1047
A6 log2 (H4K5ac8ac/H4K5) (protein MPP1 (Q00013)): 0.6114
B6 log2 (H4K5ac8ac/H4K5) (protein MPP1 (Q00013)): 0.1357
A6 log2 (H4K5ac8ac/H4K5) (protein MRE11A (P49959)): 0.1411
B6 log2 (H4K5ac8ac/H4K5) (protein MRE11A (P49959)): 0.1457
A6 log2 (H4K5ac8ac/H4K5) (protein MRPL53 (Q96EL3)): 0.1082
B6 log2 (H4K5ac8ac/H4K5) (protein MRPL53 (Q96EL3)): 0.08646
A6 log2 (H4K5ac8ac/H4K5) (protein MTA1 (Q13330)): 0.02816
B6 log2 (H4K5ac8ac/H4K5) (protein MTA1 (Q13330)): 0.1962
A6 log2 (H4K5ac8ac/H4K5) (protein MTA2 (O94776)): -0.1462
B6 log2 (H4K5ac8ac/H4K5) (protein MTA2 (O94776)): 0.09995
A6 log2 (H4K5ac8ac/H4K5) (protein MTHFD1 (P11586)): 0.4565
B6 log2 (H4K5ac8ac/H4K5) (protein MTHFD1 (P11586)): 0.1529
A6 log2 (H4K5ac8ac/H4K5) (protein NCBP1 (Q09161)): 0.2871
B6 log2 (H4K5ac8ac/H4K5) (protein NCBP1 (Q09161)): 0.08177
A6 log2 (H4K5ac8ac/H4K5) (protein NONO (Q15233)): 0.2525
B6 log2 (H4K5ac8ac/H4K5) (protein NONO (Q15233)): 0.1247
A6 log2 (H4K5ac8ac/H4K5) (protein NOSIP (M0R3B2)): 0.1983
B6 log2 (H4K5ac8ac/H4K5) (protein NOSIP (M0R3B2)): 0.2056
A6 log2 (H4K5ac8ac/H4K5) (protein PDIA3 (P30101)): 0.1866
B6 log2 (H4K5ac8ac/H4K5) (protein PDIA3 (P30101)): 0.1318
A6 log2 (H4K5ac8ac/H4K5) (protein PDIA6 (Q15084)): 0.2168
B6 log2 (H4K5ac8ac/H4K5) (protein PDIA6 (Q15084)): 0.2094
A6 log2 (H4K5ac8ac/H4K5) (protein PDLIM1 (O00151)): 0.2528
B6 log2 (H4K5ac8ac/H4K5) (protein PDLIM1 (O00151)): 0.0826
A6 log2 (H4K5ac8ac/H4K5) (protein PDS5A (Q29RF7)): 0.4669
B6 log2 (H4K5ac8ac/H4K5) (protein PDS5A (Q29RF7)): 0.2083
A6 log2 (H4K5ac8ac/H4K5) (protein PEPD (P12955)): 0.5993
B6 log2 (H4K5ac8ac/H4K5) (protein PEPD (P12955)): 0.0876
A6 log2 (H4K5ac8ac/H4K5) (protein PFN1 (P07737)): 0.1687
B6 log2 (H4K5ac8ac/H4K5) (protein PFN1 (P07737)): 0.1385
A6 log2 (H4K5ac8ac/H4K5) (protein PGAM1 (P18669)): 0.3474
B6 log2 (H4K5ac8ac/H4K5) (protein PGAM1 (P18669)): 0.1442
A6 log2 (H4K5ac8ac/H4K5) (protein PHF3 (Q92576)): 0.2762
B6 log2 (H4K5ac8ac/H4K5) (protein PHF3 (Q92576)): 0.1245
A6 log2 (H4K5ac8ac/H4K5) (protein PHF6 (Q8IWS0)): 0.1923
B6 log2 (H4K5ac8ac/H4K5) (protein PHF6 (Q8IWS0)): 0.2185
A6 log2 (H4K5ac8ac/H4K5) (protein PPIL4 (Q8WUA2)): -0.01885
B6 log2 (H4K5ac8ac/H4K5) (protein PPIL4 (Q8WUA2)): 0.132
A6 log2 (H4K5ac8ac/H4K5) (protein PPP2CB (P62714)): 0.1151
B6 log2 (H4K5ac8ac/H4K5) (protein PPP2CB (P62714)): 0.1355
A6 log2 (H4K5ac8ac/H4K5) (protein PRMT1 (H7C2I1)): 0.02607
B6 log2 (H4K5ac8ac/H4K5) (protein PRMT1 (H7C2I1)): 0.1543
A6 log2 (H4K5ac8ac/H4K5) (protein PSMG2 (V9GZ55)): 0.3486
B6 log2 (H4K5ac8ac/H4K5) (protein PSMG2 (V9GZ55)): 0.2118
A6 log2 (H4K5ac8ac/H4K5) (protein PTPN1 (P18031)): 0.5362
B6 log2 (H4K5ac8ac/H4K5) (protein PTPN1 (P18031)): 0.1917
A6 log2 (H4K5ac8ac/H4K5) (protein RACGAP1 (Q9H0H5)): -0.2953
B6 log2 (H4K5ac8ac/H4K5) (protein RACGAP1 (Q9H0H5)): 0.08375
A6 log2 (H4K5ac8ac/H4K5) (protein RANBP2 (P49792)): 0.2105
B6 log2 (H4K5ac8ac/H4K5) (protein RANBP2 (P49792)): 0.0877
A6 log2 (H4K5ac8ac/H4K5) (protein RAP1A (P62834)): 0.3804
B6 log2 (H4K5ac8ac/H4K5) (protein RAP1A (P62834)): 0.1782
A6 log2 (H4K5ac8ac/H4K5) (protein RBM4 (Q9BWF3)): 0.441
B6 log2 (H4K5ac8ac/H4K5) (protein RBM4 (Q9BWF3)): 0.172
A6 log2 (H4K5ac8ac/H4K5) (protein RBM14 (Q96PK6)): 0.2185
B6 log2 (H4K5ac8ac/H4K5) (protein RBM14 (Q96PK6)): 0.1747
A6 log2 (H4K5ac8ac/H4K5) (protein RCC2 (Q9P258)): 0.1006
B6 log2 (H4K5ac8ac/H4K5) (protein RCC2 (Q9P258)): 0.08968
A6 log2 (H4K5ac8ac/H4K5) (protein RFX5 (P48382)): 0.2839
B6 log2 (H4K5ac8ac/H4K5) (protein RFX5 (P48382)): 0.1163
A6 log2 (H4K5ac8ac/H4K5) (protein RNF126 (K7EIY6)): 0.1295
B6 log2 (H4K5ac8ac/H4K5) (protein RNF126 (K7EIY6)): 0.1252
A6 log2 (H4K5ac8ac/H4K5) (protein SALL2 (F5H433)): 0.5054
B6 log2 (H4K5ac8ac/H4K5) (protein SALL2 (F5H433)): 0.2147
A6 log2 (H4K5ac8ac/H4K5) (protein SCML2 (Q9UQR0)): 0.3736
B6 log2 (H4K5ac8ac/H4K5) (protein SCML2 (Q9UQR0)): 0.1694
A6 log2 (H4K5ac8ac/H4K5) (protein SEPHS1 (P49903)): 0.2524
B6 log2 (H4K5ac8ac/H4K5) (protein SEPHS1 (P49903)): 0.1557
A6 log2 (H4K5ac8ac/H4K5) (protein SFPQ (P23246)): 0.1435
B6 log2 (H4K5ac8ac/H4K5) (protein SFPQ (P23246)): 0.1775
A6 log2 (H4K5ac8ac/H4K5) (protein SHMT2 (P34897)): -0.116
B6 log2 (H4K5ac8ac/H4K5) (protein SHMT2 (P34897)): 0.08856
A6 log2 (H4K5ac8ac/H4K5) (protein SMAD4 (K7ES96)): 0.2948
B6 log2 (H4K5ac8ac/H4K5) (protein SMAD4 (K7ES96)): 0.1131
A6 log2 (H4K5ac8ac/H4K5) (protein SMC3 (Q9UQE7)): 0.3104
B6 log2 (H4K5ac8ac/H4K5) (protein SMC3 (Q9UQE7)): 0.1783
A6 log2 (H4K5ac8ac/H4K5) (protein SMCHD1 (A6NHR9)): 0.3298
